These are yes or no findings as the source states them, for the method shown. Some entries that bind do so weakly or less than the wild type.
B1: MOR02614 (Fab, V domains shown)
VH: QVQLVESGGGLVQPGGSLRLSCAASGFTFNNNWMHWVRQAPGKGLEWVSFISGSGSHTYYADSVKGRFTISRDNSKNTLYLQMNSLRAEDTAVYYCARAYDVWGQGTLVTVSS
VL: DIVLTQPPSVSGAPGQRVTISCSGSSSNIGFNYVNWYQQLPGTAPKLLIYGNSKRPSGVPDRFSGSKSGTSASLAITGLQSEDEADYYCAMFSPEGVFGGGTKLTVLG
notes: HuCAL GOLD Fab, VH3/L1
B2: MOR02616 (Fab, V domains shown)
VH: QVQLVESGGGLVQPGGSLRLSCAASGFTFRNNAMHWVRQAPGKGLEWVSAISSSGSGTYYADSVKGRFTISRDNSKNTLYLQMNSLRAEDTAVYYCARVIVLFDYWGQGTLVTVSS
VL: DIVLTQSPATLSLSPGERATLSCRASQNVRSNLAWYQQKPGQAPRLLIYGASNRATGVPARFSGSGSGTDFTLTISSLEPEDFAVYYCLQKYSIPFTFGQGTKVEIKR
notes: HuCAL GOLD Fab, VH3/K3
B3: MOR02618 (Fab, V domains shown)
VH: QVQLVESGGGLVQPGGSLRLSCAASGFTFNNYGMTWVRQAPGKGLEWVSSIYGYGSNTYYADSVKGRFTISRDNSKNTLYLQMNSLRAEDTAVYYCARNYWVFAYWGQGTLVTVSS
VL: DIELTQPPSVSVAPGQTARISCSGDNIPGKSVHWYQQKPGQAPVLVIYGKMNRPSGIPERFSGSNSGNTATLTISGTQAEDEADYYCQSYDNFNDSVVFGGGTKLTVLG
notes: HuCAL GOLD Fab, VH3/L3
B4: MOR02619 (Fab, V domains shown)
VH: QVQLQESGPGLVKPGETLSLTCTVSGGSISSYYWSWIRQAPGKGLEWIGIGHWGSTQYNPSLKGRVTISVDTSKNQFSLKLSSVTAEDTAVYYCARFFDVWGQGTLVTVSS
VL: DIVLTQPPSVSGAPGQRVTISCSGSSSNIGSNTVRWYQQLPGTAPKLLIYSNNKRPSGVPDRFSGSKSGTSASLAITGLQSEDEADYYCQSWDGASTGVFGGGTKLTVLG
notes: HuCAL GOLD Fab, VH4/L1
B5: MOR03066 (Fab, V domains shown)
VH: QVQLQESGPGLVKPGETLSLTCTVSGGSISSYYWSWIRQAPGKGLEWIGIGHWGSTQYNPSLKGRVTISVDTSKNQFSLKLSSVTAEDTAVYYCARFFDVWGQGTLVTVSS
VL: DIVLTQPPSVSGAPGQRVTISCSGSSSNIGSNTVRWYQQLPGTAPKLLIYSNNKRPSGVPDRFSGSKSGTSASLAITGLQSEDEADYYCSSYDTQVTRVFGGGTKLTVLG
notes: Fab, L-CDR3 derivative of MOR02619
B6: MOR03071 (Fab, V domains shown)
VH: QVQLQESGPGLVKPGETLSLTCTVSGGSISSYYWSWIRQAPGKGLEWIGIGHWGSTQYNPSLKGRVTISVDTSKNQFSLKLSSVTAEDTAVYYCARFFDVWGQGTLVTVSS
VL: DIVLTQPPSVSGAPGQRVTISCSGSSSNIGSNTVRWYQQLPGTAPKLLIYSNNKRPSGVPDRFSGSKSGTSASLAITGLQSEDEADYYCLAYIQSKGHVFGGGTKLTVLG
notes: as for B5
B7: MOR03075 (Fab, V domains shown)
VH: QVQLQESGPGLVKPGETLSLTCTVSGGSISSYYWSWIRQAPGKGLEWIGIGHWGSTQYNPSLKGRVTISVDTSKNQFSLKLSSVTAEDTAVYYCARFFDVWGQGTLVTVSS
VL: DIVLTQPPSVSGAPGQRVTISCSGSSSNIGSNTVRWYQQLPGTAPKLLIYSNNKRPSGVPDRFSGSKSGTSASLAITGLQSEDEADYYCQSWDPRSFTVFGGGTKLTVLG
notes: as for B5
B8: MOR02622 (Fab, V domains shown)
VH: QVQLVESGGGLVQPGGSLRLSCAASGFTFSNYAMTWVRQAPGKGLEWVSGISYKSSSTYYADSVKGRFTISRDNSKNTLYLQMNSLRAEDTAVYYCARGLVTFDNWGQGTLVTVSS
VL: DIALTQPASVSGSPGQSITISCTGTSSDGGTYNFVSWYQQHPGKAPKLMIYRVSNRPSGVSNRFSGSKSGNTASLTISGLQAEDEADYYCSSWTHSFTDYVFGGGTKLTVLG
notes: HuCAL GOLD Fab, VH3/L2
B9: MOR02715 (Fab, V domains shown)
VH: QVQLVESGGGLVQPGGSLRLSCAASGFTFSSYGMHWVRQAPGKGLEWVSVISSSGSYIYYADSVKGRFTISRDNSKNTLYLQMNSLRAEDTAVYYCARNKVGFDVWGQGTLVTVSS
VL: DIALTQPASVSGSPGQSITISCTGTSSDGGGYNTVSWYQQHPGKAPKLMIYYVHKRPSGVSNRFSGSKSGNTASLTISGLQAEDEADYYCQAWDNQGMKYVFGGGTKLTVLG
notes: HuCAL GOLD Fab, VH3/L2
B10: MOR03252 (Fab, V domains shown)
VH: QVQLVESGGGLVQPGGSLRLSCAASGFTFSSYGMHWVRQAPGKGLEWVSVISNYSWHIYYADSVKGRFTISRDNSKNTLYLQMNSLRAEDTAVYYCARNKVGFDVWGQGTLVTVSS
VL: DIALTQPASVSGSPGQSITISCTGTSSDGGGYNTVSWYQQHPGKAPKLMIYYVHKRPSGVSNRFSGSKSGNTASLTISGLQAEDEADYYCQSWDLSVHQVVFGGGTKLTVLG
notes: Fab, H-CDR2 derivative of MOR03062
B11: MOR03257 (Fab, V domains shown)
VH: QVQLVESGGGLVQPGGSLRLSCAASGFTFSSYGMHWVRQAPGKGLEWVSVISNRGNYIYYADSVKGRFTISRDNSKNTLYLQMNSLRAEDTAVYYCARNKVGFDVWGQGTLVTVSS
VL: DIALTQPASVSGSPGQSITISCTGTSSDGGGYNTVSWYQQHPGKAPKLMIYYVHKRPSGVSNRFSGSKSGNTASLTISGLQAEDEADYYCQSWDLSVHQVVFGGGTKLTVLG
notes: as for B10
B12: MOR02722 (Fab, V domains shown)
VH: QVQLVESGGGLVQPGGSLRLSCAASGFTFSSNAIHWVRQAPGKGLEWVSSISGSGSNTYYADSVKGRFTISRDNSKNTLYLQMNSLRAEDTAVYYCARFIASWGQGTLVTVSS
VL: DIVMTQSPLSLPVTPGEPASISCRSSQSLVHSNGYTDLNWYLQKPGQSPQLLIYLGSYRASGVPDRFSGSGSGTDFTLKISRVEAEDVGVYYCQQYSNFPFTFGQGTKVEIKR
notes: HuCAL GOLD Fab, VH3/K2
B13: MOR03255 (Fab, V domains shown)
VH: QVQLVESGGGLVQPGGSLRLSCAASGFTFSSYGMHWVRQAPGKGLEWVSVISNRSSYIYYADSVKGRFTISRDNSKNTLYLQMNSLRAEDTAVYYCARNKVGFDVWGQGTLVTVSS
VL: DIALTQPASVSGSPGQSITISCTGTSSDGGGYNTVSWYQQHPGKAPKLMIYYVHKRPSGVSNRFSGSKSGNTASLTISGLQAEDEADYYCQSWDLSVHQVVFGGGTKLTVLG
notes: as for B10
B14: MOR03251 (Fab, V domains shown)
VH: QVQLVESGGGLVQPGGSLRLSCAASGFTFSSYGMHWVRQAPGKGLEWVSVISNMSYTIYYADSVKGRFTISRDNSKNTLYLQMNSLRAEDTAVYYCARNKVGFDVWGQGTLVTVSS
VL: DIALTQPASVSGSPGQSITISCTGTSSDGGGYNTVSWYQQHPGKAPKLMIYYVHKRPSGVSNRFSGSKSGNTASLTISGLQAEDEADYYCQSWDLSVHQVVFGGGTKLTVLG
notes: as for B10
B15: MOR03253 (Fab, V domains shown)
VH: QVQLVESGGGLVQPGGSLRLSCAASGFTFSSYGMHWVRQAPGKGLEWVSVISNMGFEIYYADSVKGRFTISRDNSKNTLYLQMNSLRAEDTAVYYCARNKVGFDVWGQGTLVTVSS
VL: DIALTQPASVSGSPGQSITISCTGTSSDGGGYNTVSWYQQHPGKAPKLMIYYVHKRPSGVSNRFSGSKSGNTASLTISGLQAEDEADYYCQSWDLSVHQVVFGGGTKLTVLG
notes: Fab, H-CDR2 derivative
B16: MOR02610 (Fab, V domains shown)
VH: QVQLVQSGAEVKKPGASVKVSCKASGYTFTGFYINWVRQAPGQGLEWMGWINPYSGNTRYAQKFQGRVTMTRDTSISTAYMELSSLRSEDTAVYYCARSPVYYKYDYWGQGTLVTVSS
VL: DIVLTQPPSVSGAPGQRVTISCSGSSGNIGINFVNWYQQLPGTAPKLLIYKNNKRPSGVPDRFSGSKSGTSASLAITGLQSEDEADYYCQSYDKTSSTYVFGGGTKLTVLG
notes: HuCAL GOLD Fab, VH1B/L1
B17: MOR03245 (Fab, V domains shown)
VH: QVQLQESGPGLVKPGETLSLTCTVSGGSISSYYWSWIRQAPGKGLEWIGVIHKWGFTNYNPSLKSRVTISVDTSKNQFSLKLSSVTAADTAVYYCARFFDVWGQGTLVTVSS
VL: DIVLTQPPSVSGAPGQRVTISCSGSSSNIGSNTVRWYQQLPGTAPKLLIYSNNKRPSGVPDRFSGSKSGTSASLAITGLQSEDEADYYCWTGMSYHFVFGGGTKLTVLG
notes: Fab, H-CDR2 derivative of MOR03069
B18: MOR03243 (Fab, V domains shown)
VH: QVQLQESGPGLVKPGETLSLTCTVSGGSISSYYWSWIRQAPGKGLEWIGEIHRGGYTQYNPSLKSRVTISVDTSKNQFSLKLSSVTAADTAVYYCARFFDVWGQGTLVTVSS
VL: DIVLTQPPSVSGAPGQRVTISCSGSSSNIGSNTVRWYQQLPGTAPKLLIYSNNKRPSGVPDRFSGSKSGTSASLAITGLQSEDEADYYCQAWTRAHRYPVFGGGTKLTVLG
notes: Fab, H-CDR2 derivative of MOR03055
B19: MOR02611 (Fab, V domains shown)
VH: QVQLVQSGAEVKKPGASVKVSCKASGYTFSGSYMHWVRQAPGQGLEWMGIINPASGKTLYAQKFQGRVTMTRDTSISTAYMELSSLRSEDTAVYYCARGLYYRFASWGQGTLVTVSS
VL: DIALTQPASVSGSPGQSITISCTGTSSDIGGYHSVSWYQQHPGKAPKLMIYRSNRPSGVSNRFSGSKSGNTASLTISGLQAEDEADYYCAAATGGWVFGGGTNLTVLG
notes: HuCAL GOLD Fab, VH1B/L2
B20: MOR02613 (Fab, V domains shown)
VH: QVQLVESGGGLVQPGGSLRLSCAASGFTFSNYTMTWVRQAPGKGLEWVSFIIGSGSNTSYADSVKGRFTISRDNSKNTLYLQMNSLRAEDTAVYYCARYVNGFDIWGQGTLVTVSS
VL: DIALTQPASVSGSPGQSITISCTGTSSDVGVYYYVSWYQQHPGKAPKLMIYYDSKRPSGVSNRFSGSKSGNTASLTISGLQAEDEADYYCQTYAKKDYSLVFGGGTKLTVLG
notes: HuCAL GOLD Fab, VH3/L2

Amino acid sequences for entries named in this document (tags omitted). A change or cut given only in a name is not applied to a line headed by its entry. Chains listed by the source or under a name are the forms on record and can include a tag or linker. Residues count along the entry.
recombinant fibronectin domain 7-ED-B-8-9 (P02751, residues 1173-1537): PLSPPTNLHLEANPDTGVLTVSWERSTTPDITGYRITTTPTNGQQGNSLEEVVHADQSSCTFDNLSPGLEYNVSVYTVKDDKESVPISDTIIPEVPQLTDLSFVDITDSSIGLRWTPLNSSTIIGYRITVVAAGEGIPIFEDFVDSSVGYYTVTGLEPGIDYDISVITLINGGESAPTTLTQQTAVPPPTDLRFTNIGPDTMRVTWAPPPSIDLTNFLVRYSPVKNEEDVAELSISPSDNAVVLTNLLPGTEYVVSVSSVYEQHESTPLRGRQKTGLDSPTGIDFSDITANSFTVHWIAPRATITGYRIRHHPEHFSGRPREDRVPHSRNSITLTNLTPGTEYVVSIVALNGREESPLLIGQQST
recombinant fibronectin domain ED-B (His)6 (P02751, form named): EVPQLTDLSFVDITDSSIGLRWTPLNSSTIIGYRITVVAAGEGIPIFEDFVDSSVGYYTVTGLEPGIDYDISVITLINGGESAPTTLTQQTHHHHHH

How the values were obtained:
[1] = molecular target: recombinant fibronectin domain ED-B (His)6 (human) (UniProt P02751); experiment: specificity ELISA on immobilised recombinant ED-B
[2] = molecular target: recombinant fibronectin domain 7-ED-B-8-9 (UniProt P02751); experiment: specificity ELISA on immobilised recombinant domain 7-EDB-8-9
[3] = molecular target: recombinant fibronectin domain ED-B (His)6 (human) (UniProt P02751); experiment: ELISA, immunohistochemistry and cell adhesion test
[4] = molecular target: recombinant fibronectin domain ED-B (His)6 (human) (UniProt P02751); experiment: ELISA on immobilised ED-B after incubation of the Fab for 4 h at 37 °C in human plasma or PBS

Row | Binder | binding [1] | binding [2] | binding [3] | binding [4]
1 | B1 | binds | binds | – | –
2 | B2 | binds | binds | – | –
3 | B3 | binds | binds | – | –
4 | B4 | binds | binds | – | –
5 | B5 | – | – | binds | –
6 | B6 | – | – | binds | –
7 | B7 | – | – | binds | –
8 | B8 | binds | binds | – | –
9 | B9 | binds | binds | – | –
10 | B10 | binds | binds | – | binds
11 | B11 | binds | binds | – | binds
12 | B12 | binds | binds | – | –
13 | B13 | binds | binds | – | binds
14 | B14 | binds | binds | – | binds
15 | B15 | binds | binds | – | binds
16 | B16 | binds | binds | – | –
17 | B17 | binds | binds | – | binds
18 | B18 | – | – | – | binds
19 | B19 | binds | binds | – | –
20 | B20 | binds | binds | – | –
